In experiment [1] the target is RFWD2 (constitutive photomorphogenic 1), FLAG-tagged, overexpressed from the human RFWD2 cDNA (human) (UniProt Q8NHY2). Description: co-IP; Pierce Direct Magnetic IP/Co-IP kit; FLAG antibody for IP of FLAG-RFWD2, immunoblot for the partner; RFWD2 WT/OE ARP1 and H929 cells; IgG of the same host as negative control.
Experiment [2] shares this target. The description is as above. This is another data set of the same source.

Sequences of proteins named here, by UniProt entry; tags and fusion partners are left off.
UniProt Q8NHY2: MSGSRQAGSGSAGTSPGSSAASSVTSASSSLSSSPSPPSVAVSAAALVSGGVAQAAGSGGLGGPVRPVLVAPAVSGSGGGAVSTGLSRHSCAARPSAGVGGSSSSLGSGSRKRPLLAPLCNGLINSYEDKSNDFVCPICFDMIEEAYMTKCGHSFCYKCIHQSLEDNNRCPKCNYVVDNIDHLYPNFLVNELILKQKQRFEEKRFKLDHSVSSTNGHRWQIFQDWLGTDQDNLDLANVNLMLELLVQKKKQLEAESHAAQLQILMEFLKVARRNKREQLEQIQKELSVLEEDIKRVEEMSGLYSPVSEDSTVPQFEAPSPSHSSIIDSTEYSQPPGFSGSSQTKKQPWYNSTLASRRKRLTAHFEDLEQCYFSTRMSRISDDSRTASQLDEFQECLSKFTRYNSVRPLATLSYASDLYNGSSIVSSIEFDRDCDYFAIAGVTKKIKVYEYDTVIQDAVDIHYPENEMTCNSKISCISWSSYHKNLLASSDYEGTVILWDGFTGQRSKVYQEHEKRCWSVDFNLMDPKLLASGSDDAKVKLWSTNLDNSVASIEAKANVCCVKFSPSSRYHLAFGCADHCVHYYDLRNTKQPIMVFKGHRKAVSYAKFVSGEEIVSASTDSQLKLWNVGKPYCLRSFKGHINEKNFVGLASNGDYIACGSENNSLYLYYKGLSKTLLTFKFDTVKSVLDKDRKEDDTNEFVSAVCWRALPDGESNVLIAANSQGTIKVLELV
UniProt P46527: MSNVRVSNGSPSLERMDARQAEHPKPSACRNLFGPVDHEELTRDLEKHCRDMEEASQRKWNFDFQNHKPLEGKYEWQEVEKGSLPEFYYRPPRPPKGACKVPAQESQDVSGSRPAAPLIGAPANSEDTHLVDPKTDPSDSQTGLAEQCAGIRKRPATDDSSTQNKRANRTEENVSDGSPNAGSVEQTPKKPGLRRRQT

Where two headings read alike, the source gives them in different places. Results are given in words; binding and its absence hold for the method and conditions named. Binding seen in cells or lysates may run through a third protein. Some results given as binding are weak or reduced against the parent protein; the word gives no strength.

Take “P27 (cyclin/CDK2 inhibitor) (from UniProt P46527 1-198)”: the binding result in experiment [1] was “binds”.

B1: RING-finger and CHY-zinc-finger domain-containing protein 1 (RCHY1) (enzyme, UniProt Q96PM5 1-261)
chain: MAATAREDGASGQERGQRGCEHYDRGCLLKAPCCDKLYTCRLCHDNNEDHQLDRFKVKEVQCINCEKIQHAQQTCEECSTLFGEYYCDICHLFDKDKKQYHCENCGICRIGPKEDFFHCLKCNLCLAMNLQGRHKCIENVSRQNCPICLEDIHTSRVVAHVLPCGHLLHRTCYEEMLKEGYRCPLCMHSALDMTRYWRQLDDEVAQTPMPSEYQNMTVDILCNDCNGRSTVQFHILGMKCKICESYNTAQAGGRRISLDQQ
For the molecule B1, the binding result in experiment [2] was “binds”.
